The target in assay [1] is T1, PBP2b-S (Strep-tagged full length PBP2b of Streptococcus pneumoniae) (S. pneumoniae R6) (UniProt P0A3M6).
T1 sequence: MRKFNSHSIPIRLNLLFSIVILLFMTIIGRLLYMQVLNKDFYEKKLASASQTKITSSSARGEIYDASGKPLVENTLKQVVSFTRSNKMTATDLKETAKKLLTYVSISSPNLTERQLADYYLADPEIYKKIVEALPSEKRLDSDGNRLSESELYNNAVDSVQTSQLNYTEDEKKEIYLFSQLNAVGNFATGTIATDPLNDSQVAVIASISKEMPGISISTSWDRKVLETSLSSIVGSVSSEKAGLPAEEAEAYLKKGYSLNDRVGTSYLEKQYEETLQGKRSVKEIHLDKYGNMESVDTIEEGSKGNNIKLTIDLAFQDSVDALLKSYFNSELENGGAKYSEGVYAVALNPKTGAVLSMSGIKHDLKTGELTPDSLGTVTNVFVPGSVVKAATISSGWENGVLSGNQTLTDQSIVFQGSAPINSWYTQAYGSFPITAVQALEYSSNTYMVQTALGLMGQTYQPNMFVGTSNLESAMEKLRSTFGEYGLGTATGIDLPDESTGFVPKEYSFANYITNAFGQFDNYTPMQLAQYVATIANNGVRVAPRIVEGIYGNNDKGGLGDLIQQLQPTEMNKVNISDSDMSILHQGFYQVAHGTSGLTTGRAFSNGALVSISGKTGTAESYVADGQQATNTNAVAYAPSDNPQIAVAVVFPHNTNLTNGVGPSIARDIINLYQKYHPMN
Briefly: pull-down; Proteins co-expressed in one E. coli strain; DDM-solubilised membranes or Ni-NTA eluate; Strep-tagged protein held on Strep-Tactin (first or second step), eluted with 2.5 mM desthiobiotin; HNG buffer, 0.3 mM DDM; Coomassie SDS-PAGE, Western blot.

Sequences of proteins named here, by UniProt entry; tags and fusion partners are left off. A change or cut given only in a name is not applied to a line headed by its entry.
UniProt P59676: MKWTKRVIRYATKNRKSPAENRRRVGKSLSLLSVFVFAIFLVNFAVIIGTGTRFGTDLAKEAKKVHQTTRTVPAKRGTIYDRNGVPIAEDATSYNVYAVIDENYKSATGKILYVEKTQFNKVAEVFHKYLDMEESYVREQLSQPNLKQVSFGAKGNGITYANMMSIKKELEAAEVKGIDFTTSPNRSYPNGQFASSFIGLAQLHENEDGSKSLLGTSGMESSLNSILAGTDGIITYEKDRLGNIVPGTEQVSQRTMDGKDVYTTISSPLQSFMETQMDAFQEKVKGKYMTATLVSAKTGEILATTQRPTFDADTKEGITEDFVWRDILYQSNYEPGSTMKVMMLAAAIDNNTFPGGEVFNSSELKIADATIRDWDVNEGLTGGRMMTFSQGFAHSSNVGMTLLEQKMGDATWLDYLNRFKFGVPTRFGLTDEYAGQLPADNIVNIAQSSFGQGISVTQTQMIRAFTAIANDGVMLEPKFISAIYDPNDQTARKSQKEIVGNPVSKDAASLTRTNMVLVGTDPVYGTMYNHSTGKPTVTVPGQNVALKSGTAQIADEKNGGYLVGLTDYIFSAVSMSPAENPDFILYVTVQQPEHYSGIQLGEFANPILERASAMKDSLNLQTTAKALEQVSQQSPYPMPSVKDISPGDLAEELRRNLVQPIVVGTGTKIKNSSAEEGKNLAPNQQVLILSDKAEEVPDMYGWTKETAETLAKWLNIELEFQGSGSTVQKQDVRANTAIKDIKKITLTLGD
UniProt A0ACD7PRK7: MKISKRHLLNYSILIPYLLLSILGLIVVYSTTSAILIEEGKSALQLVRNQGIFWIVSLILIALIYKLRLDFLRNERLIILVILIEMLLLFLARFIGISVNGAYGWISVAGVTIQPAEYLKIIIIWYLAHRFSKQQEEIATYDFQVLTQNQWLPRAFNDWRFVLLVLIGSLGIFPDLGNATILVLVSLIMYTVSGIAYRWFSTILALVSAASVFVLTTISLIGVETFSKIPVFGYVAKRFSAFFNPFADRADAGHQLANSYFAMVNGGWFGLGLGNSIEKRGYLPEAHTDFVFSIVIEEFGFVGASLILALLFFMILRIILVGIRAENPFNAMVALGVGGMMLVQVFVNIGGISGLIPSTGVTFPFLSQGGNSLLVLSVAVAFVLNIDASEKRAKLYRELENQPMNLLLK

The target of assay [2] is PBP2x-S (Strep-tagged full length PBP2x of Streptococcus pneumoniae) (S. pneumoniae R6) (UniProt P59676). Described as above.
The target in assay [3] is H-FtsW (His-tagged full length FtsW of Streptococcus pneumoniae) (S. pneumoniae R6). As to the kind of experiment: pull-down; Proteins co-expressed in one E. coli strain; membranes solubilised with 10 mM DDM; His-tagged protein held on Ni-NTA, washed with 50 mM imidazole, eluted with 300 mM imidazole; HNG buffer (50 mM HEPES pH 7.5, 50 mM NaCl, 10% glycerol); Coomassie SDS-PAGE, Western blot; some complexes also in Triton X-100.

The target is the same in assay [4]. As to the kind of experiment: SEC; Affinity-purified, concentrated protein or complexes on Superdex 200 10/30 or Superose 6 16/60 in HNG buffer with 0.3 mM DDM; peaks checked by immuno-blotting; both purified. For orientation: Size exclusion chromatography separates by hydrodynamic size, large species first.
The target in assay [5] is H-DivIB (His-tagged full length DivIB of Streptococcus pneumoniae) (S. pneumoniae R6). As to the kind of experiment: pull-down; Proteins co-expressed in one E. coli strain; membranes solubilised with 10 mM DDM; His-tagged protein held on Ni-NTA, washed with 50 mM imidazole, eluted with 300 mM imidazole; HNG buffer (50 mM HEPES pH 7.5, 50 mM NaCl, 10% glycerol); Coomassie SDS-PAGE, Western blot; some complexes also in Triton X-100. On the technique in general: A western blot detects proteins with antibodies after separation by electrophoresis.

For assay [6] the target is unchanged. Briefly: SEC; Affinity-purified, concentrated protein or complexes on Superdex 200 10/30 or Superose 6 16/60 in HNG buffer with 0.3 mM DDM; peaks checked by immuno-blotting; both purified.

Results are given in words; binding and its absence hold for the method and conditions named. Binding calls can cover weak binding; strength is not graded here. For some of these results: Tags and fused reporters may be left off the sequences shown. For some of these results: In cells and extracts the contact can be indirect.

In the case of “H-DivIB (His-tagged full length DivIB of Streptococcus pneumoniae) (S. pneumoniae R6)”, in assay [1], the binding result is “binds weakly”.

For the molecule “H-FtsW (His-tagged full length FtsW of Streptococcus pneumoniae) (from UniProt A0ACD7PRK7)”, the binding entry in assay [2] was “binds”.

Regarding “PBP2x-S (Strep-tagged full length PBP2x of Streptococcus pneumoniae) (from UniProt P59676 1-750) (enzyme)”, the binding entry in assay [3] and in assay [4] was “binds” each time.

B1: FtsL (untagged full length FtsL of Streptococcus pneumoniae) (protein, UniProt Q8DR70 1-105)
chain: MAEKMEKTGQILQMQLKRFSRVEKAFYFSIAVTTLIVAISIIFMQTKLLQVQNDLTKINAQIEEKKTELDDAKQEVNELLRAERLKEIANSHDLQLNNENIRIAE
With B1, the binding entry in assay [5] and in assay [6] was “binds” each time.

B2: PBP2b-S (Strep-tagged full length PBP2b of Streptococcus pneumoniae) (enzyme, UniProt P0A3M6 1-680)
chain: MRKFNSHSIPIRLNLLFSIVILLFMTIIGRLLYMQVLNKDFYEKKLASASQTKITSSSARGEIYDASGKPLVENTLKQVVSFTRSNKMTATDLKETAKKLLTYVSISSPNLTERQLADYYLADPEIYKKIVEALPSEKRLDSDGNRLSESELYNNAVDSVQTSQLNYTEDEKKEIYLFSQLNAVGNFATGTIATDPLNDSQVAVIASISKEMPGISISTSWDRKVLETSLSSIVGSVSSEKAGLPAEEAEAYLKKGYSLNDRVGTSYLEKQYEETLQGKRSVKEIHLDKYGNMESVDTIEEGSKGNNIKLTIDLAFQDSVDALLKSYFNSELENGGAKYSEGVYAVALNPKTGAVLSMSGIKHDLKTGELTPDSLGTVTNVFVPGSVVKAATISSGWENGVLSGNQTLTDQSIVFQGSAPINSWYTQAYGSFPITAVQALEYSSNTYMVQTALGLMGQTYQPNMFVGTSNLESAMEKLRSTFGEYGLGTATGIDLPDESTGFVPKEYSFANYITNAFGQFDNYTPMQLAQYVATIANNGVRVAPRIVEGIYGNNDKGGLGDLIQQLQPTEMNKVNISDSDMSILHQGFYQVAHGTSGLTTGRAFSNGALVSISGKTGTAESYVADGQQATNTNAVAYAPSDNPQIAVAVVFPHNTNLTNGVGPSIARDIINLYQKYHPMN
With B2, the binding result in assay [5] is listed as “binds weakly”.

Source of the values: paper PMC3798694.
